# Results of single-concentration screens

Protein sequences, listed by entry. Tags and fused reporters are not part of them. Residues count along the entry.
UniProt P9WFT3, whole entry: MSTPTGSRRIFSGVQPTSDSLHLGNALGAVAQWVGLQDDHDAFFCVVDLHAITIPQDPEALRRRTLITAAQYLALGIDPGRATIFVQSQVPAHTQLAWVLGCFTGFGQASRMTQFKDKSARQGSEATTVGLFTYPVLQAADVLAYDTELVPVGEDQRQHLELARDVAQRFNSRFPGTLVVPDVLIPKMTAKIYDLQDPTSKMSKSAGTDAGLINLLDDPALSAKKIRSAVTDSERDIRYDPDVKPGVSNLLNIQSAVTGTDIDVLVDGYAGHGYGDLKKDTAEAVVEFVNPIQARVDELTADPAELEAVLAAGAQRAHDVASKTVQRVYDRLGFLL
UniProt Q8IDJ8, 1-583: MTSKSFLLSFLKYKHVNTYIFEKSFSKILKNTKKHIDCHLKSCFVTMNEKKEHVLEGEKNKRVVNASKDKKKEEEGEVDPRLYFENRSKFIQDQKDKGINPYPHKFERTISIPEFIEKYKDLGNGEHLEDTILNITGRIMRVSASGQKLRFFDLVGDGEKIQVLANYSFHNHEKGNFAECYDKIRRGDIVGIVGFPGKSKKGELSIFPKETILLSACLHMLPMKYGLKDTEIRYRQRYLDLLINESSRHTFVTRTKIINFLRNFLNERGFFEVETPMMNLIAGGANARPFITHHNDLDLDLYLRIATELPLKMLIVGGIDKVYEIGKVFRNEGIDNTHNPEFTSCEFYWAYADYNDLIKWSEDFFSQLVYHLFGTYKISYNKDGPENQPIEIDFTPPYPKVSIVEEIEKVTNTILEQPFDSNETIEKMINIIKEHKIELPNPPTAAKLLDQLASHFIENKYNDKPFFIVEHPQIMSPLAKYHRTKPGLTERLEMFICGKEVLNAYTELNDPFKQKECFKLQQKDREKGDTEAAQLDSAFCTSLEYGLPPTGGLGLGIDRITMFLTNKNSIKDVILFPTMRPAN
UniProt P9WNZ1, whole entry: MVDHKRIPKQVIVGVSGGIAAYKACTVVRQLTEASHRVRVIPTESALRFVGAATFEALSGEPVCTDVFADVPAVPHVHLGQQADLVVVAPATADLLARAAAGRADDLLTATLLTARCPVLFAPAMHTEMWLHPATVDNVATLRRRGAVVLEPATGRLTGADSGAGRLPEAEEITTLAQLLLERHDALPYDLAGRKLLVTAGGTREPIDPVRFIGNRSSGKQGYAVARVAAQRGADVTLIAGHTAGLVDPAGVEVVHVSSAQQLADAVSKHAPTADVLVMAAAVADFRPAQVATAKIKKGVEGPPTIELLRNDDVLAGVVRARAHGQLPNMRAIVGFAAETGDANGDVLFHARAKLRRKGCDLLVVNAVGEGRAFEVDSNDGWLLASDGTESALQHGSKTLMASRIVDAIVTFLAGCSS
UniProt P9WPC5, whole entry: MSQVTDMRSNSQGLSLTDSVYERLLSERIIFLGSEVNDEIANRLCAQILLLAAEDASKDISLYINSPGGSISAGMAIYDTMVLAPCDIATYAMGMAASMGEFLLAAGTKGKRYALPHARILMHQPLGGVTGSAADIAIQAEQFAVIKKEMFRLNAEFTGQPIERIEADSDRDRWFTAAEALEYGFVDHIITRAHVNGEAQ
UniProt P9WPC3, whole entry partner: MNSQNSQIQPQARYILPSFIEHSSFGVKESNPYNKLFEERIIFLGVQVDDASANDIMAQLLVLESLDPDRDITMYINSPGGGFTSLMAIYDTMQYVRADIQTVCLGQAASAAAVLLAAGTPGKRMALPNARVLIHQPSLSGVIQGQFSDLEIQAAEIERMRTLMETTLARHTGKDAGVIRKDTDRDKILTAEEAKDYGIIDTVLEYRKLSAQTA
UniProt Q4DA54, 1-478: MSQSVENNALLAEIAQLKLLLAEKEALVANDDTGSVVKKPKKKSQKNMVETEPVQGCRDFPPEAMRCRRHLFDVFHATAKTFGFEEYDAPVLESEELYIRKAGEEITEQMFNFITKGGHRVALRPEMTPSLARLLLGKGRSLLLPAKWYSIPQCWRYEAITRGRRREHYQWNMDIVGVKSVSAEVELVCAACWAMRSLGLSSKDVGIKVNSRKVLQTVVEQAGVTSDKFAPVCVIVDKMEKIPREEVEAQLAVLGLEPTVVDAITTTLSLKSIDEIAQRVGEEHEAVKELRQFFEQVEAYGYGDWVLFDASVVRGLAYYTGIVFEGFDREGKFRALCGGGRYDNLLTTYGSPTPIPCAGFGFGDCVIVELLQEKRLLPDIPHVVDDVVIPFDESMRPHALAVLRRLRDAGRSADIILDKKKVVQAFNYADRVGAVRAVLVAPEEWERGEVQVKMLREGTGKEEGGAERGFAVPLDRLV

Each number is a percent effect as filed.
The controls that fix the scale are not given in the record; negative values are as filed.
This is an unselected part of the compounds tested.

MtTrpRS: 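Tryptophan-tRNA ligase, Mycobacterium tuberculosis (UniProt P9WFT3). Enzyme assay of tryptophanyl-tRNA synthetase; the read-out is not stated. Concentration: 10 µM. Higher most likely means stronger inhibition; the record gives no direction and few retests gave an IC50. About 65,000 compounds were tested under these conditions; 0.098% (about 64) showed 50% or more at least once.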
PfKRS1: 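Lysine-tRNA ligase, Plasmodium falciparum 3D7 (UniProt Q8IDJ8). Enzyme assay of the cytosolic lysyl-tRNA synthetase in 384-well plates, read by luminescence. Concentration: 30 µM. Higher reads as stronger inhibition, judged from the few compounds that gave an IC50. Of about 69,000 compounds tested this way, about 49 (0.071%) reached 50% or more in at least one test.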
CoaBC: 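Enzyme assay of CoaBC with a phosphate dye (Biomol Green) read at 650 nm. Target: Coenzyme A biosynthesis protein CoaBC, Mycobacterium tuberculosis (UniProt P9WNZ1). Concentration: 30 µM. Direction is inferred from only a few compounds that gave an IC50; most scored high, so higher reads as stronger inhibition. Most strong results did not repeat in a second test. Size under these conditions: about 67,000 compounds, about 40 of them at 50% or above in at least one test.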
ClpP1P2: 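Protease assay of ClpP1P2, read by the AMC dye that it sets free. Target: ClpP1P2, Mycobacterium tuberculosis (UniProt P9WPC5 and UniProt P9WPC3). Concentration: 50 µM. Higher reads as stronger inhibition, judged from the few compounds that gave an IC50. Most other retested compounds had strongly negative values. Size under these conditions: about 69,000 compounds, about 10 of them at 50% or above in at least one test.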
TcHisRS: 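Enzyme assay of histidyl-tRNA synthetase; the read-out is not stated. Target: Histidine-tRNA ligase, Trypanosoma cruzi CL Brener (UniProt Q4DA54). Compounds at 30 µM. The record gives no direction; compounds that gave an IC50 in retests scored well above the rest, so higher reads as stronger inhibition. About 69,000 compounds were tested under these conditions; 0.045% (about 31) showed 50% or more at least once.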

* Cc1cn(CC(=O)Nc2cc(C(C)(C)C)nn2C)cn1 : MtTrpRS: -4.831%; PfKRS1: 5.162%; CoaBC: -6.277%; ClpP1P2: 6.333%; TcHisRS: 0.8%
* O=C1NCCN1C1CCN(CCOc2cccc3ccccc23)CC1 : MtTrpRS: -1.838%; PfKRS1: 0.05885%; CoaBC: 7.347%; ClpP1P2: -34.98%; TcHisRS: 14.87%
* O=C1CCOC[C@]2(CN(Cc3ccccc3)C[C@H]2c2cccc(F)c2)N1 : MtTrpRS: 5.405%; PfKRS1: 2.384%; CoaBC: -1.142%; ClpP1P2: -30.13%; TcHisRS: 5.429%
* Cc1cc(C)n(CC(=O)NC(Cc2ccsc2)c2ccccn2)c(=O)n1 (stereo not drawn) : MtTrpRS: 3.428%; PfKRS1: 3.651%; CoaBC: 4.167%; ClpP1P2: -5.586%; TcHisRS: -2.703%
* Cc1nc2cc(=O)[nH]n2c(C)c1CC(=O)NCc1ccoc1 : MtTrpRS: -4.16%; PfKRS1: 0.1734%; CoaBC: -0.5115%; ClpP1P2: -18.15%; TcHisRS: 5.294%
* CCNc1ncc(C(=O)N[C@H]2CC[C@H](n3cnnc3)CC2)cn1 : MtTrpRS: 0.641%; PfKRS1: -2.85%; CoaBC: -1.474%; ClpP1P2: -7.553%; TcHisRS: 4.938%
* CCOc1ccc(C2CCCN2C(=O)NCCn2ccnc2)cc1 (stereo not drawn) : MtTrpRS: -6.417%; PfKRS1: 2.215%; CoaBC: -0.2632%; ClpP1P2: -26.52%; TcHisRS: 4.399%
* Cn1cc(CN2CC(C(=O)Nc3ccccc3)C3(CCOCC3)C2)cn1 (stereo not drawn) : MtTrpRS: 4.739%; PfKRS1: 7.564%; CoaBC: -4.405%; ClpP1P2: 2.391%; TcHisRS: 2.97%
* COCCNC(=O)C1(c2ccc(C)c(OC)c2)CCCC1 : MtTrpRS: 6.328%; PfKRS1: 4.766%; CoaBC: 0.9823%; ClpP1P2: 1.797%; TcHisRS: 6.897%
* CCc1cc(C(=O)N2CCC(c3cc4ncccc4cn3)CC2)on1 : MtTrpRS: -2.957%; PfKRS1: -0.192%; CoaBC: 1.217%; ClpP1P2: -17.76%; TcHisRS: 0%
* Cc1nn(C)cc1C(=O)N1CCC(CSc2ccccc2)C1 (stereo not drawn) : MtTrpRS: 1.56%; PfKRS1: 1.479%; CoaBC: 3.099%; ClpP1P2: -1.96%; TcHisRS: 6.349%
* COCCN(Cc1ccc(F)cc1Cl)C(=O)c1csnn1 : MtTrpRS: -0.6173%; PfKRS1: 1.01%; CoaBC: 3.846%; ClpP1P2: -13.98%; TcHisRS: 5.911%
* CC(=O)c1ccccc1-c1cc(C(=O)O)cc(S(=O)(=O)NC(C)C)c1 : MtTrpRS: 0.08794%; PfKRS1: 10.51%; CoaBC: 0.4292%; ClpP1P2: -4.908%; TcHisRS: 2.326%
* CN(C)C(=O)NCc1cc2n(n1)CCCN(C[C@H]1[C@@H]3CNC[C@@H]31)C2 : MtTrpRS: -0.2174%; PfKRS1: 2.66%; CoaBC: 2.292%; ClpP1P2: 6.282%; TcHisRS: 1.508%
* CCNC(=O)NC(=O)CNc1cccc(C(=O)c2ccccc2)c1 : MtTrpRS: 0.7597%; PfKRS1: 12.98%; CoaBC: -1.946%; ClpP1P2: 9.159%; TcHisRS: 5%
* Cn1cc(CC2CCN(C(=O)NCCCc3ccc(O)cc3)C2)cn1 (stereo not drawn) : MtTrpRS: -1.527%; PfKRS1: -0.5954%; CoaBC: -0.3953%; ClpP1P2: -17.09%; TcHisRS: -4%
* N#Cc1c2n(c3c(N)ncnc13)CCCCC2 : MtTrpRS: -4.935%; PfKRS1: -0.6931%; CoaBC: 9.115%; ClpP1P2: -4.834%; TcHisRS: -0.5181%
* O=C(Cc1ccon1)Nc1cncc(Br)c1O : MtTrpRS: -3.65%; PfKRS1: 2.49%; CoaBC: -4.497%; ClpP1P2: 1.91%; TcHisRS: 6.818%

For reference, 2 entries once more:

Compound	MtTrpRS	PfKRS1	CoaBC	ClpP1P2	TcHisRS
CN(C)C(=O)NCc1cc2n(n1)CCCN(C[C@H]1[C@@H]3CNC[C@@H]31)C2	-0.2174	2.66	2.292	6.282	1.508
CCNC(=O)NC(=O)CNc1cccc(C(=O)c2ccccc2)c1	0.7597	12.98	-1.946	9.159	5

From ChEMBL document CHEMBL3988442, “University of Dundee, Small-Polar-MMV Screening Library” (2021).